# This is one part of the list. Shown are side measurements of this screen, not its main read-out; they come without a call. Compounds called inactive in the main read-out are mostly missing here. Words in brackets tell the shape of the fitted curve; partial curves, single points and poor fits give uncertain potencies.
# Assay: qHTS Assay for Lipid Storage Modulators in Drosophila S3 Cells;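 as to cell number change: cells counted by Cell Tracker Red CMTPX staining in the red channel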
# Conditions: BODIPY lipid droplet fluorescence, 18-24 h; for cell number change: measured here: cell count max response, cells fed with added oleic acid
# Procedure, shortened: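 Drosophila S3 cells got compounds at several concentrations plus oleic acid (400 uM solution). Laser-scanning cytometry with 488 nm excitation read lipid droplets at 500-530 nm and cells at 575-640 nm. Percent activity was relative to 20 uM Triacsin C.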
# [1] = measured here: lipid fluorescence (Fed channel) AC50, cells fed with added oleic acid
# [2] = measured here: cell number channel AC50, cells fed with added oleic acid
Compound,cell number change [%],AC50 [1],AC50 [2]
CCCCN1CC(=O)N2[C@H]3c4cc(OC)ccc4OC[C@@H]3[C@H](C(=O)OCC)[C@]2(C)C1=O,-8.7,"0.092 µM [rising, full curve, poor fit]",–
O=C1N/C(=C/c2cccn2-c2ccccc2)C(=O)N1c1cccc(Cl)c1,-30.8,–,"23.1 µM [falling, partial curve]"
CCN(CC)Cc1c(C(=O)N/N=C/c2cccs2)nnn1-c1nonc1N,-31.9,–,"29.1 µM [falling, single point]"
CC1=NN(c2ccccc2)C(=O)/C1=C\C=C\c1ccccc1,-67,"8.2 µM [falling, partial curve]","10.3 µM [falling, partial curve]"
N=c1n(Cc2ccc(Cl)cc2)c2ccccc2n1CC(O)c1ccco1 (centres undefined),-19.3,–,–
CC(=O)O[C@H]1C(=O)[C@@]2(C)[C@H]([C@H](OC(=O)c3ccccc3)[C@]3(O)C[C@H](OC(=O)[C@H](O)[C@@H](NC(=O)c4ccccc4)c4ccccc4)C(C)=C1C3(C)C)[C@]1(OC(C)=O)CO[C@@H]1C[C@@H]2O,-13.4,"2.31 µM [falling, full curve, poor fit]",–
Cc1ccc2nc(NNC(=O)c3ccc4c(c3)OCCO4)sc2c1,–,"18.4 µM [rising, partial curve, poor fit]",–
COc1ccc(C)cc1N(C(=O)COc1ccccc1)c1nc2ccccc2s1,-1.21,"0.13 µM [rising, full curve, poor fit]",–
CCNS(=O)(=O)c1ccc(CCC(=O)NCc2ccncc2)cc1,1.1,"23.1 µM [rising, single point]",–
O=C(OCn1ncc(Br)c(Br)c1=O)c1c(F)cccc1F,-75.1,"6.51 µM [rising, single point]","29.1 µM [falling, single point]"
COc1cccc(OC)c1C(=O)Nc1cc(C)nn1-c1nc2ccccc2[nH]1,2.83,–,–
COC(=O)C1=C(O)/C(=C\c2ccc(OCC(=O)Nc3ccc(OC)cc3)cc2)N=C1C,4.48,"5.8 µM [rising, single point]",–
Cc1ccsc1C(=O)N1CCCC(C(=O)c2cc(F)ccc2F)C1 (centres undefined),-11.1,"0.92 µM [falling, full curve, poor fit]",–
CCOc1ncccc1C(=O)Nc1ccc(OC)c(S(=O)(=O)N2CCOCC2)c1,-6.19,–,–
CCOc1cc(/C=C(/C#N)c2nc3ccccc3[nH]2)ccc1Oc1ccc([N+](=O)[O-])cn1,50.9,"0.116 µM [rising, full curve, poor fit]","32.6 µM [rising, single point]"
OCCN(CCO)c1ncnc2c1sc1nc(N3CCOCC3)c3c(c12)CCCC3,-16.2,"16.4 µM [rising, partial curve]",–
COc1ccccc1OCCC(=O)Nc1cccc(S(=O)(=O)N2CCOCC2)c1,-8.4,–,–
COc1ccccc1CNC(=O)C(C)NS(=O)(=O)c1ccccc1 (centres undefined),-38.9,–,"29.1 µM [falling, single point]"
Cc1ccc(-c2csc(NC(=O)C3CC=CCC3C(=O)O)c2C(=O)OC(C)C)cc1 (centres undefined),0.712,–,–
O=S(=O)(c1ccc(NC(=S)N/N=C/c2c3ccccc3cc3ccccc23)cc1)N1CCOCC1,34.1,–,"14.6 µM [rising, single point]"

# Record cards (already shown):
# `CCCCN1CC(=O)N2[C@H]3c4cc(OC)ccc4OC[C@@H]3[C@H](C(=O)OCC)[C@]2(C)C1=O` is listed as cell number change [%]: -8.7; AC50 [1]: 0.092 µM [rising, full curve, poor fit]
# `CCOc1cc(/C=C(/C#N)c2nc3ccccc3[nH]2)ccc1Oc1ccc([N+](=O)[O-])cn1` is listed as cell number change [%]: 50.9; AC50 [1]: 0.116 µM [rising, full curve, poor fit]; AC50 [2]: 32.6 µM [rising, single point]
# `CCN(CC)Cc1c(C(=O)N/N=C/c2cccs2)nnn1-c1nonc1N` is listed as cell number change [%]: -31.9; AC50 [2]: 29.1 µM [falling, single point]

# Carrying on:

Compound,cell number change [%],AC50 [1],AC50 [2]
CC(C)C(=O)NC(c1ccco1)c1c(O)ccc2ccccc12 (centres undefined),0.564,"1.3 µM [falling, full curve, poor fit]",–
Cn1cnc2c(cnn2-c2ccccc2)c1=O,32.2,"0.00461 µM [rising, full curve, poor fit]","18.4 µM [rising, partial curve, poor fit]"
CCn1c(=NC(=O)c2ccc(S(=O)(=O)N3CCOCC3)cc2)sc2cccc(OC)c21,–,"29.1 µM [falling, partial curve]",–
COc1ccc(S(=O)(=O)N2CCN(c3ccccc3OC)CC2)cc1,6.42,"20.6 µM [falling, single point]",–
O=C(/C=C/c1cccc([N+](=O)[O-])c1)N1CCN(c2ccccc2F)CC1,2.16,"4.11 µM [rising, single point]",–
CN(C)C(=O)c1ccc(NC(=O)c2ccc(-c3ccc(Cl)cc3)o2)cc1,-12.7,–,–
O=S(=O)(NCC1CCCO1)c1ccc(S(=O)(=O)N2CCCC2)cc1 (centres undefined),9.42,"0.00411 µM [rising, full curve, poor fit]",–
O=C1C=C(c2ccc(Cl)nc2)C[C@@H](c2ccc3c(c2)OCO3)C1,–,"1.84 µM [falling, partial curve, poor fit]","0.517 µM [falling, partial curve]"
COc1cccc(C2NC(=O)NC(C)=C2C(=O)Nc2ccccc2C)c1 (centres undefined),-12.7,"18.4 µM [rising, single point]",–
CN(C)S(=O)(=O)c1ccc(C(=O)NC(=O)CSc2ccccc2)cc1,76.8,–,"29.1 µM [rising, single point]"
COC(=O)[C@H]1CN(C(=O)c2ccccc2)C(=O)N1,-12.6,–,–
CC(=O)Nc1ccccc1OCc1nnc(-c2ccccc2Cl)o1,-0.794,"0.103 µM [rising, full curve, poor fit]",–
COc1ccc2ccccc2c1CN1CCSCC1,–,"0.146 µM [falling, full curve, poor fit]","0.184 µM [falling, full curve, poor fit]"
NC(=O)CSc1cn(Cc2ccc(F)cc2)c2ccccc12,33.9,"16.4 µM [rising, single point]","13 µM [rising, single point]"
Cc1cc(=O)oc2cc(OCC(=O)NCCN3CCOCC3)ccc12,-1.18,"6.51 µM [falling, single point]",–
CCCCNc1ncnc2c1cnn2Cc1ccc(Cl)cc1,-0.704,"20.6 µM [falling, partial curve]","0.146 µM [rising, full curve, poor fit]"
OC(CN1CCCCC1)Cn1c(C(F)(F)F)nc2ccccc21 (centres undefined),-75.8,–,–
O=C(NC1=NCCS1)C1CC2CCC1C2 (centres undefined),43.7,"29.1 µM [rising, partial curve, poor fit]","9.2 µM [rising, partial curve]"
CSc1nc2ccccc2n1CC(=O)Nc1c(C)cccc1C,-26.9,–,–
COc1ccc(OC)c(NC(=O)CCOc2cccc(C)c2)c1,-1.67,"0.206 µM [rising, full curve, poor fit]",–

Compound,cell number change [%],AC50 [1],AC50 [2]
COc1ccc(NC(=O)/C=C/c2ccc(F)cc2)cn1,-16.7,–,–
Cn1c(-c2csc(-c3ccccc3)n2)n[nH]c1=S,76.6,–,–
COc1ccc(CCNC(=O)C(=O)NCC2OCCN2S(=O)(=O)c2ccc3c(c2)OCCO3)cc1OC (centres undefined),-20.5,"0.58 µM [falling, single point]",–
O=C(Oc1cccc2c(=O)[nH]ccc12)c1ccccc1,-20.6,"0.206 µM [falling, partial curve, poor fit]",–
COC(=O)c1cn(NC(=O)Cc2ccccc2OC)c(=O)c2ccccc12,-47.7,"0.461 µM [falling, full curve, poor fit]","25.9 µM [falling, partial curve, poor fit]"
COc1ccc(-c2csc(NC(=O)Cc3cc(OC)c(OC)c(OC)c3)n2)cc1OC,24.3,"11.6 µM [falling, single point]",–
Cc1cc(C)c(OCC(=O)OCC(=O)N(C)C2CCS(=O)(=O)C2)c(C)c1 (centres undefined),-8.38,"29.1 µM [rising, single point]",–
CN(C)/C=C/C(=O)c1cnc(-c2ccccc2)s1,66.6,"6.51 µM [falling, single point]","29.1 µM [rising, single point]"
NC(=O)C1CCN(C(=O)c2ccc(Cl)c(S(=O)(=O)NCc3ccco3)c2)CC1,0.871,"0.146 µM [falling, full curve]","0.13 µM [falling, full curve, poor fit]"
C=CCn1c(COc2ccccc2)nnc1SCc1ccc(C#N)cc1,4.58,"2.31 µM [rising, single point]",–
CN1CCN(c2nc3c(c(=O)[nH]c(=O)n3C)n2CC(N)=O)CC1,2.44,"0.00517 µM [rising, full curve, poor fit]",–
CC(C)c1[nH]nc2c1C(C1C=CCCC1)C(C#N)=C(N)O2 (centres undefined),-1.19,–,"1.64 µM [falling, partial curve, poor fit]"
CCCn1c(N)c(C(=O)COC(=O)c2cccc(S(=O)(=O)N3CCOCC3)c2)c(=O)[nH]c1=O,0.705,"18.4 µM [falling, single point]",–
O=C(CNC(=O)c1ccco1)N=Nc1c(O)[nH]c2ccc([N+](=O)[O-])cc12,–,"0.82 µM [falling, full curve]",–
O=C(Cn1cnc2ccccc2c1=O)OCC(=O)c1ccc2c(c1)OCCO2,16.2,"0.461 µM [rising, full curve]","1.46 µM [rising, full curve, poor fit]"
O=C(CCSCc1ccc(Cl)cc1)NCc1cccs1,-40.6,"29.1 µM [falling, single point]","29.1 µM [falling, single point]"
CN(/N=C/c1cc(Cl)ccc1O)C1=NS(=O)(=O)c2ccccc21,–,"29.1 µM [falling, single point]",–
CN(C)CCCNC(=O)/C(=C/c1ccc(-c2ccc([N+](=O)[O-])cc2)o1)NC(=O)c1ccccc1,-17.6,"29.1 µM [falling, single point]","7.31 µM [falling, single point]"
